This note sets out measurements from the supplement of paper PMC12067093, “Discovery and optimisation of a covalent ligand for TRIM25 and its application to targeted protein ubiquitination” (Chemical Science, 2025).

Sequences of proteins named here, by UniProt entry; tags and fusion partners are left off. A change or cut given only in a name is not applied to a line headed by its entry.
UniProt Q02447: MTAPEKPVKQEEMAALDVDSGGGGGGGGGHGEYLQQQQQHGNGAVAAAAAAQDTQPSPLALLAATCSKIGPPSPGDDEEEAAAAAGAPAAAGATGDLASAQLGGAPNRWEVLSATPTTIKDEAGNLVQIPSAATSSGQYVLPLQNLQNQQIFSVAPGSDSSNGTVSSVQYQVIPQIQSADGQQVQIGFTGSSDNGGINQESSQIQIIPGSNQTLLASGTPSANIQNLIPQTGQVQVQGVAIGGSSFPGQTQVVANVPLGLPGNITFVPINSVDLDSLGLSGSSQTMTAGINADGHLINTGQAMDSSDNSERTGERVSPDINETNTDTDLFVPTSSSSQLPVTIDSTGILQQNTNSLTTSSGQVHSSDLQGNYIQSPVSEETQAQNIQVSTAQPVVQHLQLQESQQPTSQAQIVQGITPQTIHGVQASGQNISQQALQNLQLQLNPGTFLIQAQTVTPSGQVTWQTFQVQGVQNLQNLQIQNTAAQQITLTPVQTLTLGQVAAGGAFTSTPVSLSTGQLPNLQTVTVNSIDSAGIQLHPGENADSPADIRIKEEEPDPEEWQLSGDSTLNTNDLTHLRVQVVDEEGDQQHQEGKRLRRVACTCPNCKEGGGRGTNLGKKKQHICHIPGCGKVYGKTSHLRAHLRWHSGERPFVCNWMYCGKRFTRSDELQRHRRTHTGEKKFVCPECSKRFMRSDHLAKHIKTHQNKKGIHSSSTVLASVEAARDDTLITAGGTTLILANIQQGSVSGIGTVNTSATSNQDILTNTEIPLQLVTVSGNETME
UniProt Q8N5C6: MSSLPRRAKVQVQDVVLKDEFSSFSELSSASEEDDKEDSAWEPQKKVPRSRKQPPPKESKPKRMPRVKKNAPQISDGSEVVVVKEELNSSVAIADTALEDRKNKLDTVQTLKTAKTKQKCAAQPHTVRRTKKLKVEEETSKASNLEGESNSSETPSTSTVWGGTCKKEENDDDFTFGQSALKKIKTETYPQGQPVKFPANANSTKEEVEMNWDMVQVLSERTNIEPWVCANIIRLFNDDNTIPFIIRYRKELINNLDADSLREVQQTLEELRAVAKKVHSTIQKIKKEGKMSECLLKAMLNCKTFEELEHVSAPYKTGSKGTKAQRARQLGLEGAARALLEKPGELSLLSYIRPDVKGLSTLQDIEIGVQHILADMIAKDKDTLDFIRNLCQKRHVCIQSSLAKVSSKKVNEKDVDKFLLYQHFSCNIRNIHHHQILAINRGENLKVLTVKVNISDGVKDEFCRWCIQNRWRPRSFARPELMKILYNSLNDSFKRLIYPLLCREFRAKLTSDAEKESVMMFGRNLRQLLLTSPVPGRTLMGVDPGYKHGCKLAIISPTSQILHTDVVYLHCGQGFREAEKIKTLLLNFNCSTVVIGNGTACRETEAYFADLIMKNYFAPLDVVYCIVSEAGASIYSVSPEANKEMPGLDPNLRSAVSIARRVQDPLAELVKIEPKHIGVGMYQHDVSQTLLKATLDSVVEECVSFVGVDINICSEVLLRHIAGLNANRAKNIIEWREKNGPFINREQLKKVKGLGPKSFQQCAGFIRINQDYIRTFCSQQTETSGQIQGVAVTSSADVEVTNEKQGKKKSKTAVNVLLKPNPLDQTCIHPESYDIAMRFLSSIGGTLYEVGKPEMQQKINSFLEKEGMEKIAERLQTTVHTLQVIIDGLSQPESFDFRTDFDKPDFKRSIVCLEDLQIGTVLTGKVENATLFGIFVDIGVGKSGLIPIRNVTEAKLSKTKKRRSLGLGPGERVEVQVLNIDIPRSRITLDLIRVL
UniProt O76094: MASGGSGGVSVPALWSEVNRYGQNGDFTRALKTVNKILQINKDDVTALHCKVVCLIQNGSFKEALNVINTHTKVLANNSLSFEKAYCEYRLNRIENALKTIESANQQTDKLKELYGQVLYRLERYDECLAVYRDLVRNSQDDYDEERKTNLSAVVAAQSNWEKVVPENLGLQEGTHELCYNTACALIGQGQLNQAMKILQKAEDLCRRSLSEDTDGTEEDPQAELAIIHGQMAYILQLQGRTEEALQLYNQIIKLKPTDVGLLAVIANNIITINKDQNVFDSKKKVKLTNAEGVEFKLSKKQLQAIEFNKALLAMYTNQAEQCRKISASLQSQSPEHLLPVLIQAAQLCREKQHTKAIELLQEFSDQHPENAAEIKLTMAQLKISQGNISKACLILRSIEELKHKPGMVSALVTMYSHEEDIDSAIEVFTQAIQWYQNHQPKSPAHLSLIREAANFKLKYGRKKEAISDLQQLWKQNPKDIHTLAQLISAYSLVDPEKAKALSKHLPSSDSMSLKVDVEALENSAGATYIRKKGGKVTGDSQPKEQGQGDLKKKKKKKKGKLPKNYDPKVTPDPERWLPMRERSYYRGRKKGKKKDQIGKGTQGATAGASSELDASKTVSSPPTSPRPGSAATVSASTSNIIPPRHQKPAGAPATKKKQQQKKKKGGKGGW
UniProt Q00796: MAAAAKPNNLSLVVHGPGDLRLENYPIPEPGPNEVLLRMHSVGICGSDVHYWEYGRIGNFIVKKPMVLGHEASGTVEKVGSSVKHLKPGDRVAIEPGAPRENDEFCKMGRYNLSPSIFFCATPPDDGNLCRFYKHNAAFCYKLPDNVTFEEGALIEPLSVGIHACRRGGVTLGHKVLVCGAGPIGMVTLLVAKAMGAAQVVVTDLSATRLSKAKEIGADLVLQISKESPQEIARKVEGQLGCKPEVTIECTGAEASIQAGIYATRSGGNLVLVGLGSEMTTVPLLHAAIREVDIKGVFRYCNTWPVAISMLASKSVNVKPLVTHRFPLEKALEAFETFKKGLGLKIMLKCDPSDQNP
UniProt P08047, whole entry, looked up: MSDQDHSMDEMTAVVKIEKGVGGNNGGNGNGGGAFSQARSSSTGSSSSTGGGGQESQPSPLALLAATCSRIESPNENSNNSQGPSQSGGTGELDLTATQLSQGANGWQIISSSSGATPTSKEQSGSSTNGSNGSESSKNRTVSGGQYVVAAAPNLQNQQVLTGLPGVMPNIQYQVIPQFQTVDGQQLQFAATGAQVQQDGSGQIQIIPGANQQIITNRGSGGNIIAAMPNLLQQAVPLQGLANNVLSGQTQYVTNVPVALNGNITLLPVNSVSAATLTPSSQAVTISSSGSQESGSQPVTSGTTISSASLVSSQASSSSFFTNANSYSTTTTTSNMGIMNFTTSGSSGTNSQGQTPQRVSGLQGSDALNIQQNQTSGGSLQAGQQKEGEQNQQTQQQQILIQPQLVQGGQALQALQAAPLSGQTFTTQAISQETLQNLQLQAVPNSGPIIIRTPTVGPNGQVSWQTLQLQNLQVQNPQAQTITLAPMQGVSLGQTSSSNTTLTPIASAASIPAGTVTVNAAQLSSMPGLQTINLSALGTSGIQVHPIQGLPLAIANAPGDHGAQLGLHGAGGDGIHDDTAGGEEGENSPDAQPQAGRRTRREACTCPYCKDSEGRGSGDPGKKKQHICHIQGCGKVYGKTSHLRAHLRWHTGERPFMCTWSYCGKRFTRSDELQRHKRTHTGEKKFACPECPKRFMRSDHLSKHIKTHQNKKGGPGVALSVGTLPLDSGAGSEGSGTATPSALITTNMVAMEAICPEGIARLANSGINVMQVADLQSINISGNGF
UniProt P08240: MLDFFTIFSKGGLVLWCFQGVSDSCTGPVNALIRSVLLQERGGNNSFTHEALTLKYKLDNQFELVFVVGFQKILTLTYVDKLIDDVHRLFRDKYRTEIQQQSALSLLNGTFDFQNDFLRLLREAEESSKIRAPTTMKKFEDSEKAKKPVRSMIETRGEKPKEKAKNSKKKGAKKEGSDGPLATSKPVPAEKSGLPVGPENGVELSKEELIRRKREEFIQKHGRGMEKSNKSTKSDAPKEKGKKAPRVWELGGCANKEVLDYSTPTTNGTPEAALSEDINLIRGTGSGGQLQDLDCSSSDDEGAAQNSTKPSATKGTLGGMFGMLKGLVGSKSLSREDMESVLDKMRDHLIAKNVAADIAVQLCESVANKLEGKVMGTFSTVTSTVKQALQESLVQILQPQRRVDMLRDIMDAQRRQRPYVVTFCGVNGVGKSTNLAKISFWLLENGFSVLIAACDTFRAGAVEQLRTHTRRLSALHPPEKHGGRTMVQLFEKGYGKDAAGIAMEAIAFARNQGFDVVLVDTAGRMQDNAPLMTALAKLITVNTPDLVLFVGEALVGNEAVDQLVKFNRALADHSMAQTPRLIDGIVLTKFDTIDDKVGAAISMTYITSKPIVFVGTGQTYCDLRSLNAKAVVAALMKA
UniProt Q96R06: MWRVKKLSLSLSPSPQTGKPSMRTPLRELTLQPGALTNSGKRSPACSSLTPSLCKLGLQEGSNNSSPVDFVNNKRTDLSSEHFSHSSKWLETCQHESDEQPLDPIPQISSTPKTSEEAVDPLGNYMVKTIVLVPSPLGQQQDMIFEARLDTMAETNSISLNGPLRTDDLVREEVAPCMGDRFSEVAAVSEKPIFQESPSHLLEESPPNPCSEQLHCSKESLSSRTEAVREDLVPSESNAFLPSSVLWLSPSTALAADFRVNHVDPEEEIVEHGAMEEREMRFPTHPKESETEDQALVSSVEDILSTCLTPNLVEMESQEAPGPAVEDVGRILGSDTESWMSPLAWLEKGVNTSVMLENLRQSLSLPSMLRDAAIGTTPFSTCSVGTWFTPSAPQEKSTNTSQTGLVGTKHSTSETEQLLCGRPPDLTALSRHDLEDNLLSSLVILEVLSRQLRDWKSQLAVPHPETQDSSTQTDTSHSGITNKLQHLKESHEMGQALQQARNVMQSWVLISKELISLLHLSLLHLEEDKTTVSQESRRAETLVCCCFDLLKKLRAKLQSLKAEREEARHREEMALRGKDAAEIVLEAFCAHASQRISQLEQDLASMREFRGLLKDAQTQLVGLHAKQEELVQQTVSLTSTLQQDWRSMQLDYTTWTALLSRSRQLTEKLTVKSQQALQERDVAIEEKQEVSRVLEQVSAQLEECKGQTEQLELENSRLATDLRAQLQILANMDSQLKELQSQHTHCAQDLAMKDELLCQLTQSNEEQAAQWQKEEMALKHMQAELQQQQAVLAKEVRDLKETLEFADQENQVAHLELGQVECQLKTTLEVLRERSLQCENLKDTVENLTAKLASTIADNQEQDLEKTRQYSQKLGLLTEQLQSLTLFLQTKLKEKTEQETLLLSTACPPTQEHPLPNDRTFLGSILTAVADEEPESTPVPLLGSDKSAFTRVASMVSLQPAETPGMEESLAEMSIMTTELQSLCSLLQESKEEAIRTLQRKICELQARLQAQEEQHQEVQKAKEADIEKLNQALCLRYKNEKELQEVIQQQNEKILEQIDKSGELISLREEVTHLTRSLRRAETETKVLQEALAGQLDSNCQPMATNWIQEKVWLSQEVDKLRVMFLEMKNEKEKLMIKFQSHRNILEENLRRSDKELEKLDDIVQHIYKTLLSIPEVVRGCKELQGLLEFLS
UniProt Q12772: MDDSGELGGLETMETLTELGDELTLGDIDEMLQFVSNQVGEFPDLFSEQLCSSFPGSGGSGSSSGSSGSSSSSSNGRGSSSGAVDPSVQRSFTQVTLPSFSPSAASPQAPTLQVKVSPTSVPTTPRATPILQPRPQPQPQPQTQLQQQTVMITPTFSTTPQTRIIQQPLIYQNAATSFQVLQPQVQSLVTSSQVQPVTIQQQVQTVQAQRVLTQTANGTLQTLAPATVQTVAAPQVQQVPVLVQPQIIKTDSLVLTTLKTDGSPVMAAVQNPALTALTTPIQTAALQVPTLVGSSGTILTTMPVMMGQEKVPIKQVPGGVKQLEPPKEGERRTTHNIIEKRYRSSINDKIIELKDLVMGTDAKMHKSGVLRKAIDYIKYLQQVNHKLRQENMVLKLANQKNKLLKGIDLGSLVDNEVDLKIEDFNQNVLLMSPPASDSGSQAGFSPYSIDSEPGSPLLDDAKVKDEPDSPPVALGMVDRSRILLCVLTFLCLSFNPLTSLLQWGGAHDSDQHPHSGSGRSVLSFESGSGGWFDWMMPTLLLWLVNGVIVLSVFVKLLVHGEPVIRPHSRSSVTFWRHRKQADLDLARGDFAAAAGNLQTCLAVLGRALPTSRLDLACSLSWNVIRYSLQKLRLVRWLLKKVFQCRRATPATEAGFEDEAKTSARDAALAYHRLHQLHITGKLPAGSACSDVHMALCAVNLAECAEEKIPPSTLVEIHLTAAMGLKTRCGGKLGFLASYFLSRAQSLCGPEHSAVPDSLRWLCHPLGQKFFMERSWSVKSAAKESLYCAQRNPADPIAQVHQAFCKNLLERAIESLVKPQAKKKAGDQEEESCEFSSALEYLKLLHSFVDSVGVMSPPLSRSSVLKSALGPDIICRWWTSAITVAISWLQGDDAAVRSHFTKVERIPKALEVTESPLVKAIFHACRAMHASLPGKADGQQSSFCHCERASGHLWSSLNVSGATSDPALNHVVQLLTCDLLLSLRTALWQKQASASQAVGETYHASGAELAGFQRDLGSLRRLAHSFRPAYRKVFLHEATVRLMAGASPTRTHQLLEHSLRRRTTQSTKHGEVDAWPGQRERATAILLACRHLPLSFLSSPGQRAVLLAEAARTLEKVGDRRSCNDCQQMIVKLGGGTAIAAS

Compound in this experiment: Cc1cc(ccc1-c1ccccc1)C(=O)N1CCCN(CC1)C(=O)CCl [compound 10]
The experiment is described as follows: probe-labelled cysteine peptide fold change vs DMSO (competition) (log2 fold change); higher = less target engagement (more negative = stronger competition). As to conditions: THP-1, incubation time: 4 h.

The other results are listed elsewhere or left out.
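Also: competitive profiling in live THP-1 cells: cysteine peptides tagged with an iodoacetamide desthiobiotin (IA-DTB) probe, intensity after compound treatment relative to DMSO-treated cells.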

As to “SP3_Q02447_602_VACTCPNCK (UniProt Q02447)”, the “probe-labelled cysteine peptide fold change” value reads like this: (10 µM) 0.0547; (50 µM) 0.393.
As for “SRBD1_Q8N5C6_912_SIVCLEDLQIGTVLTGK (UniProt Q8N5C6)”, the “probe-labelled cysteine peptide fold change” value is, setting by setting: (10 µM) -0.159; (50 µM) 0.181.
The matching figures for “SORL1_Q92673_736_ISGDTCSGGDVEAR (UniProt Q92673)”: -0.187 and -0.179.
The matching figures for “SNX27_Q96L92_456_LHACTEEGQLENQVIAFEWDEMQR (UniProt Q96L92)”: 0.146 and 0.371.
For “SNU13_P55769_93_ACGVSRPVIACSVTIK (UniProt P55769)”, in that order: 0.0687 and 0.0644.
With “SRP72_O76094_50_DDVTALHCK (UniProt O76094)”, the “probe-labelled cysteine peptide fold change” value is, setting by setting: (10 µM) 0.224; (50 µM) -0.266.
For “SORD_Q00796_106_ENDEFCK (UniProt Q00796)”, in that order: -0.0657 and -0.0861.
Take “SP1_P08047_663_WHTGERPFMCTWSYCGK (UniProt P08047)”: the “probe-labelled cysteine peptide fold change” value reads like this: (10 µM) -0.228; (50 µM) -0.0476.
For “SRPRA_P08240_363_NVAADIAVQLCESVANKLEGK (UniProt P08240)”, the “probe-labelled cysteine peptide fold change” value (10 µM) worked out at 0.199 and the “probe-labelled cysteine peptide fold change” value (50 µM) was -0.248.
For “SRP68_Q9UHB9_344_LFESMLSECR (UniProt Q9UHB9)”, in that order: 0.00902 and 0.163.
The matching figures for “SP3_Q02447_683+686_KFVCPECSK (UniProt Q02447)”: -0.0874 and -0.285.
As for “SRBD1_Q8N5C6_397_RHVCIQSSLAK (UniProt Q8N5C6)”, the “probe-labelled cysteine peptide fold change” value by setting is: (10 µM) -0.164; (50 µM) -0.138.
Turning to “SPAG5_Q96R06_589_DAAEIVLEAFCAHASQR (UniProt Q96R06)”, the “probe-labelled cysteine peptide fold change” value (10 µM) was determined as 0.117 and the “probe-labelled cysteine peptide fold change” value (50 µM) was 0.188.
In the case of “SRPRA_P08240_424_RQRPYVVTFCGVNGVGK (UniProt P08240)”, the “probe-labelled cysteine peptide fold change” value runs as follows: (10 µM) -0.134; (50 µM) 0.168.
The matching figures for “SREBF2_Q12772_787_ESLYCAQR (UniProt Q12772)”: 0.18 and -0.116.
